Earlier results in patent US20070248590A1, “Modulators of CDC2-like kinases (CLKS) and methods of use thereof” (Sirtris Pharmaceuticals, Inc., priority 2005, published 2007).
For at least one compound, name, drawing or mass did not settle the structure.

Tested on: HDAC
Conditions: in vitro or in vivo, literature; cited from earlier work

## CCC(=O)CCCCC[C@@H]1NC(=O)[C@H]2CCCCN2C(=O)[C@H]([C@@H](C)CC)NC(=O)[C@H](Cc2cn(OC)c3ccccc23)NC1=O [Apicidin]
  inhibition of HDAC: nanomolar concentrations
